PubChem BioAssay AID1259405 | NCATS | 2018
Here is an unselected part of about 50,000 reagents tested. In the full data, about 4,000 (8%) are marked active. 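Mouse siRNA library applied to hamster cells; one well for each siRNA.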 The numbers tell different reagents against one gene apart. Reagent sequences are not shown.

- Screen: 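Knock-downs that lift recombinant protein yield in hamster ovary cells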 (primary screen)
- Cells: Chinese hamster CHO-K1 ovary cells with stable secreted eGFP expression
- Knock-down reagent: single siRNA against mouse genes, 0.8 pmol siRNA per well (2 µl of 400 nM stock)
- Duration: 3 days
- Measurement: 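Percent of the per-plate non-targeting control median for intracellular GFP per well by laser scanning cytometry and for cell viability by ATP luminescence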
- Direction: GFP, % of control: higher = more GFP per well, higher productivity; viability (ATP), % of control: higher = more viable cells (more ATP)
- Active means: 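Called active when intracellular GFP, relative to negative control, is at or above 120%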

{"Gene": "Stxbp2 (GeneID 20911)", "reagent no.": 1, "GFP, % of control": 150, "viability (ATP), % of control": 87.6, "Outcome": "active"}
{"Gene": "Stxbp2 (GeneID 20911)", "reagent no.": 2, "GFP, % of control": 69.3, "viability (ATP), % of control": 61.2, "Outcome": "inactive"}
{"Gene": "Stxbp2 (GeneID 20911)", "reagent no.": 3, "GFP, % of control": 60.2, "viability (ATP), % of control": 72.9, "Outcome": "inactive"}
{"Gene": "Ccdc93 (GeneID 70829)", "reagent no.": 1, "GFP, % of control": 109, "viability (ATP), % of control": 73.4, "Outcome": "inactive"}
{"Gene": "Ccdc93 (GeneID 70829)", "reagent no.": 2, "GFP, % of control": 59.7, "viability (ATP), % of control": 66.6, "Outcome": "inactive"}
{"Gene": "Ccdc93 (GeneID 70829)", "reagent no.": 3, "GFP, % of control": 75.4, "viability (ATP), % of control": 79.3, "Outcome": "inactive"}
{"Gene": "Adam33 (GeneID 110751)", "reagent no.": 1, "GFP, % of control": 55.5, "viability (ATP), % of control": 61.2, "Outcome": "inactive"}
{"Gene": "Adam33 (GeneID 110751)", "reagent no.": 2, "GFP, % of control": 39.2, "viability (ATP), % of control": 66.3, "Outcome": "inactive"}
{"Gene": "Adam33 (GeneID 110751)", "reagent no.": 3, "GFP, % of control": 101, "viability (ATP), % of control": 86.7, "Outcome": "inactive"}
{"Gene": "Gpha2 (GeneID 170458)", "reagent no.": 1, "GFP, % of control": 56.1, "viability (ATP), % of control": 63.4, "Outcome": "inactive"}
{"Gene": "Gpha2 (GeneID 170458)", "reagent no.": 2, "GFP, % of control": 75.3, "viability (ATP), % of control": 73.6, "Outcome": "inactive"}
{"Gene": "Gpha2 (GeneID 170458)", "reagent no.": 3, "GFP, % of control": 54.3, "viability (ATP), % of control": 33.8, "Outcome": "inactive"}
{"Gene": "Or13n4 (GeneID 258590)", "reagent no.": 1, "GFP, % of control": 80.8, "viability (ATP), % of control": 81.3, "Outcome": "inactive"}
{"Gene": "Or13n4 (GeneID 258590)", "reagent no.": 2, "GFP, % of control": 72.9, "viability (ATP), % of control": 70.3, "Outcome": "inactive"}
{"Gene": "Or13n4 (GeneID 258590)", "reagent no.": 3, "GFP, % of control": 73.4, "viability (ATP), % of control": 77.2, "Outcome": "inactive"}
{"Gene": "Desi1 (GeneID 28075)", "reagent no.": 1, "GFP, % of control": 55.1, "viability (ATP), % of control": 89, "Outcome": "inactive"}
{"Gene": "Desi1 (GeneID 28075)", "reagent no.": 2, "GFP, % of control": 90.8, "viability (ATP), % of control": 86.4, "Outcome": "inactive"}
{"Gene": "Desi1 (GeneID 28075)", "reagent no.": 3, "GFP, % of control": 114, "viability (ATP), % of control": 62.8, "Outcome": "inactive"}
{"Gene": "Cst8 (GeneID 13012)", "reagent no.": 1, "GFP, % of control": 67.8, "viability (ATP), % of control": 57.7, "Outcome": "inactive"}
{"Gene": "Cst8 (GeneID 13012)", "reagent no.": 2, "GFP, % of control": 56.3, "viability (ATP), % of control": 55.1, "Outcome": "inactive"}
{"Gene": "Cst8 (GeneID 13012)", "reagent no.": 3, "GFP, % of control": 35.6, "viability (ATP), % of control": 58.5, "Outcome": "inactive"}
{"Gene": "Phf7 (GeneID 71838)", "reagent no.": 1, "GFP, % of control": 84.3, "viability (ATP), % of control": 77.2, "Outcome": "inactive"}
{"Gene": "Phf7 (GeneID 71838)", "reagent no.": 2, "GFP, % of control": 57.2, "viability (ATP), % of control": 75.3, "Outcome": "inactive"}
{"Gene": "Cyp21a1 (GeneID 13079)", "reagent no.": 1, "GFP, % of control": 163, "viability (ATP), % of control": 99, "Outcome": "active"}
{"Gene": "Cyp21a1 (GeneID 13079)", "reagent no.": 2, "GFP, % of control": 60.5, "viability (ATP), % of control": 62.4, "Outcome": "inactive"}
{"Gene": "Cyp21a1 (GeneID 13079)", "reagent no.": 3, "GFP, % of control": 109, "viability (ATP), % of control": 64.5, "Outcome": "inactive"}

The list goes on, starting with the last 4 of the part before.
{"Gene": "Phf7 (GeneID 71838)", "reagent no.": 2, "GFP, % of control": 57.2, "viability (ATP), % of control": 75.3, "Outcome": "inactive"}
{"Gene": "Cyp21a1 (GeneID 13079)", "reagent no.": 1, "GFP, % of control": 163, "viability (ATP), % of control": 99, "Outcome": "active"}
{"Gene": "Cyp21a1 (GeneID 13079)", "reagent no.": 2, "GFP, % of control": 60.5, "viability (ATP), % of control": 62.4, "Outcome": "inactive"}
{"Gene": "Cyp21a1 (GeneID 13079)", "reagent no.": 3, "GFP, % of control": 109, "viability (ATP), % of control": 64.5, "Outcome": "inactive"}
{"Gene": "Ccl5 (GeneID 20304)", "reagent no.": 1, "GFP, % of control": 81, "viability (ATP), % of control": 135, "Outcome": "inactive"}
{"Gene": "Ccl5 (GeneID 20304)", "reagent no.": 2, "GFP, % of control": 62.2, "viability (ATP), % of control": 74, "Outcome": "inactive"}
{"Gene": "Or4c52 (GeneID 258790)", "reagent no.": 1, "GFP, % of control": 69.6, "viability (ATP), % of control": 90.1, "Outcome": "inactive"}
{"Gene": "Or4c52 (GeneID 258790)", "reagent no.": 2, "GFP, % of control": 66, "viability (ATP), % of control": 63.1, "Outcome": "inactive"}
{"Gene": "Or4c52 (GeneID 258790)", "reagent no.": 3, "GFP, % of control": 66.5, "viability (ATP), % of control": 111, "Outcome": "inactive"}
{"Gene": "Kcne2 (GeneID 246133)", "reagent no.": 1, "GFP, % of control": 81.5, "viability (ATP), % of control": 78.5, "Outcome": "inactive"}
{"Gene": "Kcne2 (GeneID 246133)", "reagent no.": 2, "GFP, % of control": 50, "viability (ATP), % of control": 66.1, "Outcome": "inactive"}
{"Gene": "Kcne2 (GeneID 246133)", "reagent no.": 3, "GFP, % of control": 99.7, "viability (ATP), % of control": 92.3, "Outcome": "inactive"}
{"Gene": "Mbd3l1 (GeneID 73503)", "reagent no.": 1, "GFP, % of control": 46, "viability (ATP), % of control": 37.1, "Outcome": "inactive"}
{"Gene": "Mbd3l1 (GeneID 73503)", "reagent no.": 2, "GFP, % of control": 61.4, "viability (ATP), % of control": 74.2, "Outcome": "inactive"}
{"Gene": "Mbd3l1 (GeneID 73503)", "reagent no.": 3, "GFP, % of control": 55.4, "viability (ATP), % of control": 60.5, "Outcome": "inactive"}
{"Gene": "Rnase9 (GeneID 328401)", "reagent no.": 1, "GFP, % of control": 72.1, "viability (ATP), % of control": 106, "Outcome": "inactive"}
{"Gene": "Rnase9 (GeneID 328401)", "reagent no.": 2, "GFP, % of control": 72.9, "viability (ATP), % of control": 71.1, "Outcome": "inactive"}
{"Gene": "Rnase9 (GeneID 328401)", "reagent no.": 3, "GFP, % of control": 57.8, "viability (ATP), % of control": 83.9, "Outcome": "inactive"}
{"Gene": "Ppil2 (GeneID 66053)", "reagent no.": 1, "GFP, % of control": 182, "viability (ATP), % of control": 122, "Outcome": "active"}
{"Gene": "Ppil2 (GeneID 66053)", "reagent no.": 2, "GFP, % of control": 105, "viability (ATP), % of control": 81, "Outcome": "inactive"}
{"Gene": "Ppil2 (GeneID 66053)", "reagent no.": 3, "GFP, % of control": 96, "viability (ATP), % of control": 72.6, "Outcome": "inactive"}
{"Gene": "Tspan31 (GeneID 67125)", "reagent no.": 1, "GFP, % of control": 86, "viability (ATP), % of control": 76.9, "Outcome": "inactive"}
{"Gene": "Tspan31 (GeneID 67125)", "reagent no.": 2, "GFP, % of control": 81.4, "viability (ATP), % of control": 63.5, "Outcome": "inactive"}
{"Gene": "Rab5if (GeneID 67388)", "reagent no.": 1, "GFP, % of control": 64.2, "viability (ATP), % of control": 84.4, "Outcome": "inactive"}
{"Gene": "Rab5if (GeneID 67388)", "reagent no.": 2, "GFP, % of control": 42.8, "viability (ATP), % of control": 54.6, "Outcome": "inactive"}
{"Gene": "Rab5if (GeneID 67388)", "reagent no.": 3, "GFP, % of control": 36.4, "viability (ATP), % of control": 46.5, "Outcome": "inactive"}
{"Gene": "Naa16 (GeneID 66897)", "reagent no.": 1, "GFP, % of control": 94.2, "viability (ATP), % of control": 56.7, "Outcome": "inactive"}
{"Gene": "Naa16 (GeneID 66897)", "reagent no.": 2, "GFP, % of control": 59.6, "viability (ATP), % of control": 75.6, "Outcome": "inactive"}
{"Gene": "Naa16 (GeneID 66897)", "reagent no.": 3, "GFP, % of control": 78, "viability (ATP), % of control": 51.4, "Outcome": "inactive"}
{"Gene": "Galnt9 (GeneID 231605)", "reagent no.": 1, "GFP, % of control": 124, "viability (ATP), % of control": 67.1, "Outcome": "active"}
{"Gene": "Galnt9 (GeneID 231605)", "reagent no.": 2, "GFP, % of control": 125, "viability (ATP), % of control": 135, "Outcome": "active"}
{"Gene": "Galnt9 (GeneID 231605)", "reagent no.": 3, "GFP, % of control": 70.4, "viability (ATP), % of control": 91.2, "Outcome": "inactive"}
